PubChem BioAssay AID1259308, NCATS, 2017
The deposit covers about 59,000 reagents; this is a random part of them. About 1,510 of all reagents (2.6%) were called active. 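Calls use total luciferase alone and ignore viability, so some active siRNAs may act by altering cell number.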 The numbers tell different reagents against one gene apart.

- Test: 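Knock-downs that increase output of a recombinant reporter protein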 (primary screen)
- Cell system: human HEK293 embryonic kidney cells stably expressing firefly luciferase (HEK-CMV-Luc2-Hygro)
- Reagent: single siRNA against human genes, 0.8 pmol siRNA per well
- Timing: 72 h
- Detection: 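Reporter luminescence and viable-cell signal on separate replicate plates, given as percent of non-targeting control and median/MAD z-scores, plus per-cell luciferase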
- Direction: total luciferase, z-score and total luciferase, % of control: higher = more reporter protein produced; luciferase per cell, z-score: higher = more reporter output per viable cell; viable cells, % of control: higher = more viable cells
- Rule for the call: 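An siRNA counts as active if its total luciferase robust z-score exceeds 3; genes with two or more such siRNAs out of three were retested with fresh siRNAs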
- Meaning of the calls: active = raised luciferase; inactive = no rise

| gene knocked down | reagent no. | total luciferase, z-score | total luciferase, % of control | luciferase per cell, z-score | viable cells, % of control | call |
| --- | --- | --- | --- | --- | --- | --- |
| C1orf220 (chromosome 1 putative open reading frame 220) | 1 | 0.0979 | 83.8 | 1.34 | 65.8 | inactive |
| C1orf220 (chromosome 1 putative open reading frame 220) | 2 | -0.158 | 78.7 | -0.0942 | 90.2 | inactive |
| C1orf220 (chromosome 1 putative open reading frame 220) | 3 | 0.204 | 85.9 | 0.323 | 88.2 | inactive |
| BRD1 (bromodomain containing 1) | 1 | -1.94 | 43.3 | -2.19 | 86.2 | inactive |
| BRD1 (bromodomain containing 1) | 2 | 0.517 | 92.2 | 0.126 | 99.6 | inactive |
| BRD1 (bromodomain containing 1) | 3 | -0.782 | 66.3 | -0.11 | 76.3 | inactive |
| FAM217B (family with sequence similarity 217 member B) | 1 | -0.189 | 78.1 | -0.766 | 107 | inactive |
| FAM217B (family with sequence similarity 217 member B) | 2 | 1.1 | 104 | 0.159 | 111 | inactive |
| FAM217B (family with sequence similarity 217 member B) | 3 | 1.63 | 114 | 0.525 | 111 | inactive |
| PI4KAP2 (phosphatidylinositol 4-kinase alpha pseudogene 2) | 1 | -1.22 | 57.7 | -0.879 | 81.2 | inactive |
| PI4KAP2 (phosphatidylinositol 4-kinase alpha pseudogene 2) | 2 | 1.37 | 109 | 1.19 | 89.1 | inactive |
| PI4KAP2 (phosphatidylinositol 4-kinase alpha pseudogene 2) | 3 | 1.57 | 113 | 0.000411 | 126 | inactive |
| PWWP2B (PWWP domain containing 2B) | 1 | -2.03 | 41.5 | -2.91 | 99.8 | inactive |
| PWWP2B (PWWP domain containing 2B) | 2 | 1.68 | 115 | 0.88 | 102 | inactive |
| PWWP2B (PWWP domain containing 2B) | 3 | 0.361 | 89.1 | 0.712 | 82.5 | inactive |
| PTPN21 (protein tyrosine phosphatase non-receptor type 21) | 1 | -0.174 | 78.4 | 0.00218 | 87.6 | inactive |
| PTPN21 (protein tyrosine phosphatase non-receptor type 21) | 2 | -1.55 | 51 | -1.3 | 80.4 | inactive |
| PTPN21 (protein tyrosine phosphatase non-receptor type 21) | 3 | -1.41 | 53.9 | -2.49 | 116 | inactive |
| TMPRSS11F (transmembrane serine protease 11F) | 1 | -1.07 | 60.7 | -1.33 | 96.4 | inactive |
| TMPRSS11F (transmembrane serine protease 11F) | 2 | 2.31 | 128 | 1.61 | 93.5 | inactive |
| TMPRSS11F (transmembrane serine protease 11F) | 3 | 0.515 | 92.1 | -0.225 | 109 | inactive |
| LRRTM2 (leucine rich repeat transmembrane neuronal 2) | 1 | -0.0841 | 80.2 | -0.869 | 113 | inactive |
| LRRTM2 (leucine rich repeat transmembrane neuronal 2) | 2 | -0.544 | 71.1 | -0.933 | 102 | inactive |
| LRRTM2 (leucine rich repeat transmembrane neuronal 2) | 3 | -0.497 | 72 | -0.588 | 93.9 | inactive |
| ADPRH (ADP-ribosylarginine hydrolase) | 1 | -0.506 | 71.8 | -0.993 | 104 | inactive |
| ADPRH (ADP-ribosylarginine hydrolase) | 2 | 1.66 | 115 | 0.99 | 99 | inactive |
| ADPRH (ADP-ribosylarginine hydrolase) | 3 | -0.265 | 76.6 | -0.761 | 105 | inactive |
| ZNF839 (zinc finger protein 839) | 1 | 0.157 | 85 | 2.63 | 47.6 | inactive |
| ZNF839 (zinc finger protein 839) | 2 | 1.49 | 111 | 1.18 | 91.4 | inactive |
| ZNF839 (zinc finger protein 839) | 3 | 1.48 | 111 | 0.807 | 101 | inactive |
| AOPEP (aminopeptidase O (putative)) | 1 | -0.496 | 72 | -0.663 | 95.8 | inactive |
| AOPEP (aminopeptidase O (putative)) | 2 | 0.107 | 84 | -0.411 | 105 | inactive |
| AOPEP (aminopeptidase O (putative)) | 3 | 0.417 | 90.2 | 0.224 | 95 | inactive |
| TKT (transketolase) | 1 | -0.571 | 70.5 | -0.523 | 90.4 | inactive |
| TKT (transketolase) | 2 | -1.29 | 56.2 | -0.377 | 69.4 | inactive |
| TKT (transketolase) | 3 | -0.331 | 75.3 | 0.0423 | 83.2 | inactive |
| SLC29A4P1 | 1 | -0.585 | 70.3 | -0.957 | 101 | inactive |
| SLC29A4P1 | 2 | 0.39 | 89.6 | 0.631 | 84.8 | inactive |
| SLC29A4P1 | 3 | -3.04 | 21.5 | -4.05 | 69.8 | inactive |
| PNKD (PNKD metallo-beta-lactamase domain containing) | 1 | 0.232 | 86.5 | 1.11 | 72.2 | inactive |
| PNKD (PNKD metallo-beta-lactamase domain containing) | 2 | 0.528 | 92.4 | 0.388 | 93.2 | inactive |
| PNKD (PNKD metallo-beta-lactamase domain containing) | 3 | -0.833 | 65.3 | 1.1 | 54.7 | inactive |
| RC3H2 (ring finger and CCCH-type domains 2) | 1 | -0.328 | 75.4 | -0.728 | 102 | inactive |
| RC3H2 (ring finger and CCCH-type domains 2) | 2 | 0.0546 | 83 | -0.0273 | 93.4 | inactive |
| RC3H2 (ring finger and CCCH-type domains 2) | 3 | 0.686 | 95.5 | 1.03 | 81.5 | inactive |
| CLDN25 (claudin 25) | 1 | -1.84 | 45.3 | -2.01 | 85.8 | inactive |
| CLDN25 (claudin 25) | 2 | -0.716 | 67.7 | -0.243 | 80.6 | inactive |
| CLDN25 (claudin 25) | 3 | -0.144 | 79 | -0.321 | 96.1 | inactive |
| XPO4 (exportin 4) | 1 | 0.764 | 97.1 | 0.565 | 93.5 | inactive |
| XPO4 (exportin 4) | 2 | -0.417 | 73.6 | -0.227 | 87.3 | inactive |
| XPO4 (exportin 4) | 3 | 2.54 | 132 | 1.47 | 100 | inactive |
| CALY (calcyon neuron specific vesicular protein) | 1 | 1.49 | 112 | 2 | 73.8 | inactive |
| CALY (calcyon neuron specific vesicular protein) | 2 | -0.17 | 78.5 | 0.396 | 79 | inactive |
| CALY (calcyon neuron specific vesicular protein) | 3 | -1.09 | 60.3 | 0.491 | 59.2 | inactive |
| SLC35F4 | 1 | -1.35 | 55 | 0.297 | 56.9 | inactive |
| SLC35F4 | 2 | 0.43 | 90.4 | 0.302 | 93.3 | inactive |
| SLC35F4 | 3 | -0.111 | 79.7 | -0.123 | 92 | inactive |

Laid out differently: results already given.
gene knocked down	reagent no.	total luciferase, z-score	total luciferase, % of control	luciferase per cell, z-score	viable cells, % of control	call
AOPEP (aminopeptidase O (putative))	1	-0.496	72	-0.663	95.8	inactive
AOPEP (aminopeptidase O (putative))	2	0.107	84	-0.411	105	inactive
AOPEP (aminopeptidase O (putative))	3	0.417	90.2	0.224	95	inactive
TKT (transketolase)	1	-0.571	70.5	-0.523	90.4	inactive
TKT (transketolase)	2	-1.29	56.2	-0.377	69.4	inactive
